Oligonucleotides screened, 5′ to 3′:
SAM-II: SAM-II riboswitch RNA pseudoknot, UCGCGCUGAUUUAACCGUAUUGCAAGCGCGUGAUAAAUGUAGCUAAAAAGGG. Hit rate about 1% of about 21,000 compounds.
PreQ1: PreQ1 riboswitch RNA pseudoknot, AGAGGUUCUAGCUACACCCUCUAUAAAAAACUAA. From B. subtilis. Hit rate about 0.7% of about 24,000 compounds.
TPP: TPP riboswitch RNA three-way junction, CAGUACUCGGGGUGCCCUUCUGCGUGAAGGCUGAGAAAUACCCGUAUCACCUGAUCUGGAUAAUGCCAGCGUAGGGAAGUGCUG. Hit rate about 0.7% of about 24,000 compounds.

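Compounds were printed on reactive glass slides in duplicate spots, a dye-labelled oligonucleotide was laid over them, and the fluorescence left after washing was read. The data file lists only calls. An earlier report of the laboratory on the PreQ1, TPP and SAM-II riboswitches (doi:10.1038/s41467-019-09493-3) used 1 µM RNA for 2 h and required a mean Z-score above 3 (spot signal-to-noise against the whole library), a score well above that on a control array, and duplicate spots agreeing (coefficient of variation under 100); it then also set aside compounds that hit other targets, which this list keeps. The cut-offs behind this list may differ. These are primary screening calls, not affinities; a compound without a hit may have attached poorly or may still bind in solution.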 A compound is marked yes if it was called a hit and no if it was screened but was not. This is an unselected part of the compounds tested. A target missing from an entry has no call listed here.

{"compound": "O=C1C(Nc2ccc(O)cc2)=C(n2nnc3ccccc32)C(=O)c2ccccc21", "SAM-II": "no", "PreQ1": "no", "TPP": "no"}
{"compound": "CCCCC(=O)Nc1sc2c(c1C#N)CC(C)(C)NC2(C)C", "SAM-II": "no", "PreQ1": "no", "TPP": "no"}
{"compound": "COc1ccc(CCNc2ncnc3sc4c(c23)CCC(C)C4)cc1OC", "stereo": "stereo not given", "SAM-II": "no", "PreQ1": "no", "TPP": "no"}
{"compound": "CCOC(=O)c1c(Nc2ccccc2N)cc(C)nc1C", "SAM-II": "no", "PreQ1": "no", "TPP": "no"}
{"compound": "CCSc1ncc(-c2c(-c3ccccc3)ncn2CC[C@@H](C)CO)cn1", "SAM-II": "no", "PreQ1": "no", "TPP": "no"}
{"compound": "Cn1c(=O)c2c(nc3n(CCCCO)c(-c4cccs4)cn23)n(C)c1=O", "SAM-II": "no", "PreQ1": "no", "TPP": "no"}
{"compound": "CCn1cncc1CNC(=O)C1(Oc2ccc(Cl)cc2)CCNCC1", "SAM-II": "no", "PreQ1": "no", "TPP": "no"}
{"compound": "CCOC(=O)c1nn(-c2ccc(F)cc2)c(=O)c2c(N)scc12", "SAM-II": "no", "PreQ1": "no", "TPP": "no"}
{"compound": "Cc1ccc(-c2nc3cnccn3c2Nc2ccccc2C)cc1", "SAM-II": "no", "PreQ1": "no", "TPP": "no"}
{"compound": "Fc1ccc(CNc2nc3c(Cl)cccc3s2)cc1", "SAM-II": "no", "PreQ1": "no", "TPP": "no"}
{"compound": "CCOc1ccc(N2C(=O)c3ccccc3C2Nc2cccc(SC)c2)cc1", "stereo": "stereo not given", "SAM-II": "no", "PreQ1": "no", "TPP": "no"}
{"compound": "O=S(=O)(NC1CCCCC1Nc1ccc(Cl)cc1)c1ccccc1", "stereo": "stereo not given", "PreQ1": "no", "TPP": "no"}
{"compound": "Cc1c(F)cccc1NC(=O)CNCCc1ccccn1", "SAM-II": "no", "PreQ1": "no", "TPP": "no"}
{"compound": "Cc1ccn2c(NC3CCCCC3)c(-c3ccncc3)nc2c1", "SAM-II": "no", "PreQ1": "no", "TPP": "no"}
{"compound": "Cc1ccc(Cn2nnc(C(=O)Nc3ccc(Br)cc3)c2N)cc1", "SAM-II": "no", "PreQ1": "no", "TPP": "no"}
{"compound": "OC(c1cccc2ccccc12)c1nccn1Cc1ccccc1", "stereo": "stereo not given", "SAM-II": "no", "PreQ1": "no", "TPP": "no"}
{"compound": "CC(=O)c1cccc(Nc2cc(C)nc3ccccc23)c1", "SAM-II": "no", "PreQ1": "no", "TPP": "no"}
{"compound": "COc1cccc(OCC(O)CN2CCOCC2)c1", "stereo": "stereo not given", "SAM-II": "no", "PreQ1": "no", "TPP": "no"}
{"compound": "CNC(=O)c1ccc(CN2C(=O)C3(CCNCC3)Nc3ccccc32)o1", "SAM-II": "no", "PreQ1": "no", "TPP": "no"}
{"compound": "CC(C)Nc1cc(N2CCC(n3cc(CCO)nn3)CC2)ncn1", "SAM-II": "no", "PreQ1": "no", "TPP": "no"}
{"compound": "CC(O)CCC(=O)NCCc1nc2ccccc2n1Cc1ccc(Br)cc1", "stereo": "stereo not given", "PreQ1": "no", "TPP": "no"}
{"compound": "Oc1ccc(-c2nc3ccccc3s2)c(O)c1", "SAM-II": "no", "PreQ1": "no", "TPP": "no"}
{"compound": "CCCOc1ccc(OCCSc2nc(=O)cc(N)[nH]2)cc1", "SAM-II": "no", "PreQ1": "no", "TPP": "no"}
{"compound": "O=C(c1cnn[nH]1)N1C[C@H](CO)C[C@H](CN2CCCC2)C1", "SAM-II": "no", "PreQ1": "no", "TPP": "no"}
{"compound": "O=C(N1CCNCC(O)C1)C1(c2ccccc2)CCCC1", "stereo": "stereo not given", "SAM-II": "no", "PreQ1": "no", "TPP": "no"}
{"compound": "COC(=O)C1=C(C)OC(N)=C(C#N)C12C(=O)N(Cc1ccc(F)cc1)c1ccccc12", "stereo": "stereo not given", "SAM-II": "no", "PreQ1": "no", "TPP": "no"}
{"compound": "CCO[C@H]1C[C@@H](O)C12CCN(C(=O)C(=O)c1cccn1C)CC2", "SAM-II": "no", "PreQ1": "no", "TPP": "no"}
{"compound": "OCc1csc(N2CCc3[nH]c4c(Cl)cccc4c3C2)n1", "SAM-II": "no", "PreQ1": "no", "TPP": "no"}

From ROBIN, a set of small-molecule microarray screens (doi:10.1002/anie.202211358).